{"sequences": {"note": "Amino acid sequences for entries named in this document (tags omitted). Residues count along the entry.", "UniProt P51449, whole entry": "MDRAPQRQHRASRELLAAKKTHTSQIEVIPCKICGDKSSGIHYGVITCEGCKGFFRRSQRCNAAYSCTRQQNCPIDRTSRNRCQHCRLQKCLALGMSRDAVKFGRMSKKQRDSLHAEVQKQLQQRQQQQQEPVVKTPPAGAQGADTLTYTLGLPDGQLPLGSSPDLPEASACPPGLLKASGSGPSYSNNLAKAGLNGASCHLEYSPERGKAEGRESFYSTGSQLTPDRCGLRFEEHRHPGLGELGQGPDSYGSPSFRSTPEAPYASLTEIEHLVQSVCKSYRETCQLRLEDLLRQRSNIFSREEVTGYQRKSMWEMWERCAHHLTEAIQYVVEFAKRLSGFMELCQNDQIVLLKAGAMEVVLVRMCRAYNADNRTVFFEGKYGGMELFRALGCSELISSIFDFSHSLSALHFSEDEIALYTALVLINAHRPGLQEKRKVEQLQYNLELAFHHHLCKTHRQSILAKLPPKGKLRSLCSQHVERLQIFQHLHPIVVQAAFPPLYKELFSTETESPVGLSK", "UniProt P51449, 269-508 limits assumed": "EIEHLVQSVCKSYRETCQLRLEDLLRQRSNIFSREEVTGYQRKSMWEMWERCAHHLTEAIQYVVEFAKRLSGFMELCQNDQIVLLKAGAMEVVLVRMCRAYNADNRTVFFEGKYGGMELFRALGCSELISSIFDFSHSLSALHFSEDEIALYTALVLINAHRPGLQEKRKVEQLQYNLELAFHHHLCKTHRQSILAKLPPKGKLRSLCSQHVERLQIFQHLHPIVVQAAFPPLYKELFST"}, "source": "patent US9815851B2", "about": "“Pyrrolo carboxamides as modulators of orphan nuclear receptor RAR-related orphan receptor-gamma (RORγ, NR1F3) activity and for the treatment of chronic inflammatory and autoimmune diseases” (PHENEX PHARMACEUTICALS AG, priority 2011, dated 2017)", "key": {"[1]": {"target": "RORγ ligand binding domain (LBD) (Homo sapiens, UniProt P51449)", "assay": "TR-FRET Activity Assay (ligand sensing, RORγ-LBD / coactivator peptide interaction, LANCE)", "format": "biochemical", "details": "first value of the cell FRET/FF/REN"}, "RORγ": {"target": "RORγ (UniProt P51449)", "assay": "RORγ Gal4 Reporter Gene Assay in 293T cells (firefly and renilla luciferase)", "format": "cell-based, human"}}, "note": "Values joined by “and” are separate entries in the source; they are usually repeats but may differ in a detail not shown here. Equal entries are not always repeated. Structures were worked out from names or drawings and are uncertain.", "data": [{"smiles": "Cc1c(C(=O)NCC(C)(C)O)cc(-c2cc(S(=O)(=O)N3CCCCC3)c3ccccn23)n1CC1CCCCC1", "values": [{"measurement": "pIC50 (FRET)", "setting": "[1]", "result": "5.3 and 5.6"}, {"measurement": "pIC50 (FF)", "setting": "RORγ; second value of the cell, firefly luciferase", "result": "6.8 and 6.7"}, {"measurement": "pIC50 (REN)", "setting": "RORγ; third value of the cell, renilla normalised luciferase", "result": "6.9 and 6.8"}]}]}
